From patent US20220162331A1 (CHENGDU CONMED BIOSCIENCES, published 2022)
No constants are given. Whether binding was seen depends on the method and setting. Some entries that bind do so weakly or less than the wild type.

Experiments:
[1] = target: T1, human full-length CD73 on hCD73-CHO-1C11 cells (human) (UniProt P21589); experiment: flow cytometry on hCD73-CHO-1C11 cells, anti-mouse IgG-Fc-AF647 secondary
T1 sequence: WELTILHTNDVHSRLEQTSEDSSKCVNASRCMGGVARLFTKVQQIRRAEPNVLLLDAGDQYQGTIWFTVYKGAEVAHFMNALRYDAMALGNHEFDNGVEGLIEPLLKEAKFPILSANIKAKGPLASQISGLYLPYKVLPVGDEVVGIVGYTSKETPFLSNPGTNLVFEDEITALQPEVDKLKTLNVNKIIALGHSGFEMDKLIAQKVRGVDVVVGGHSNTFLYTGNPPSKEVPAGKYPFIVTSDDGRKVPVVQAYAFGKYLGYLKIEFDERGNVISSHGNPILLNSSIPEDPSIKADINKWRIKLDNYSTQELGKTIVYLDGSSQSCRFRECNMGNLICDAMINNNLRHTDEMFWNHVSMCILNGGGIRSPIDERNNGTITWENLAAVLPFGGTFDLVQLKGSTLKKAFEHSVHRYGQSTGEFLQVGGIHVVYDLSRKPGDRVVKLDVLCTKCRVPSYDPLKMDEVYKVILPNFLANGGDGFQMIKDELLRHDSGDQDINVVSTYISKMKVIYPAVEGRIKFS

[2] = target: T2, human CD73 on Calu6 cells (human, UniProt P21589 27-549); experiment: flow cytometry on Calu6 cells, anti-mouse IgG-Fc-AF647 secondary
T2 sequence (looked up): T1 sequence

binding [1]: binds | binding [2]: binds
B1: CD73 antibody 14H10 (antibody, V domains shown)
VH: QIQLQQSGAELARPGASVNLSCKASGYSFTSYWMQWLKQRPGQGLEWIGAIYPGDGDTRYTQKFKGKATLTADKSSSTAYMQLSSLASEDSAVYYCALFSYWGQGTLVTVSA
VL: DIQMTQSPSSLSASLGERVSLTCRASQDIGSSLNWLQQEPDGTFKRLIYATSTLDSGVPKRFSGSRSGSDYSLTISSLESEDFVDYYCLQYASFPYTFGGGTKLEIK
notes: Mouse variable regions on human IgG heavy chain constant region and human kappa constant region (chimeric IgG)
